Results published in publication PMC12602706.
No constants are given. Whether binding was seen depends on the method and setting. Binding seen in cells or lysates may run through a third protein. Some results given as binding are weak or reduced against the parent protein; the word gives no strength. Sequences can lack the tags named with a protein.

Molecular target: T1, FLAG-tagged LMO4 (LIM domain only protein 4) (human) (UniProt P61968)
T1 sequence: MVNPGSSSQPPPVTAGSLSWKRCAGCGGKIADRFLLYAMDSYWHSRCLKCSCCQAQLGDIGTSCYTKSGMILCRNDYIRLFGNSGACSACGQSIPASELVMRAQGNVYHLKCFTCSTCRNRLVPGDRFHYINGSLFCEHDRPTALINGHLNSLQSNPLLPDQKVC
Experiment: co-IP; Flag-tagged LMO4 pulled down from Cal27 cells, in the presence or absence of MG132; blotted for RAB17 and ubiquitin

binding: binds
B1: RAB17 (Ras-related protein Rab-17) (protein, UniProt Q9H0T7 1-212)
chain: MAQAHRTPQPRAAPSQPRVFKLVLLGSGSVGKSSLALRYVKNDFKSILPTVGCAFFTKVVDVGATSLKLEIWDTAGQEKYHSVCHLYFRGANAALLVYDITRKDSFLKAQQWLKDLEEELHPGEVLVMLVGNKTDLSQEREVTFQEGKEFADSQKLLFMETSAKLNHQVSEVFNTVAQELLQRSDEEGQALRGDAAVALNKGPARQAKCCAH
